Measurements taken from article PMC2777868.
Results are given in words; binding and its absence hold for the method and conditions named. Binding seen in cells or lysates may run through a third protein. Some binding calls cover weakened binding; strength is not graded here. Where a sequence is shown, tags or fusion partners need not be part of it.

Amino acid sequences for entries named in this document (tags omitted).
UniProt P48510: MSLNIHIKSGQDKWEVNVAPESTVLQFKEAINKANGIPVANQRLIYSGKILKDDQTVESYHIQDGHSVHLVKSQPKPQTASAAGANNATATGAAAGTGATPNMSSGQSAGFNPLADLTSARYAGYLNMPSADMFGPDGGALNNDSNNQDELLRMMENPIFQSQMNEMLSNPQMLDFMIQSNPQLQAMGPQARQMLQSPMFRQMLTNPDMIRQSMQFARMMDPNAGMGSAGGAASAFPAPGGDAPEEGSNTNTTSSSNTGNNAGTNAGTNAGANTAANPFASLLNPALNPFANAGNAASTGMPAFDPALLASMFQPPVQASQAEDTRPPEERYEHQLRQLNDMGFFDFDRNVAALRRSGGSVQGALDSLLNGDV

Biological target: Dsk2-TAP (S. cerevisiae) (UniProt P48510)
Assay: co-IP; extracts of yeast cells expressing endogenous Dsk2-TAP and galactose-inducible GST-His6-Kre22; immunoprecipitated with either IgG or GST beads, SDS-PAGE, immunoblot; done as in ref. 20

binding: binds
B1: GST-His6-tagged Kre22 (protein, UniProt P87269 1-146)
chain: MTILHQSEDQIEVASEVAAASEAASEVASEAVSPEAASVAPEVDLVVQEVVTVAIPEVATVATPEADMVAPEVVTIVLEVVTIVQEVVIPEVAMVVQEMITVLQEVATVVQEVVMMVQEAIMVLQEMHTEPEMLHVKDHQPGKPFI
